PubChem BioAssay AID743454, Peter MacCallum Cancer Centre – 2014
This is a random part of about 18,000 deposited reagents. In the full data, 450 (2.5%) are marked active. 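Single biological run; no consistent viability z cut-off exists, so the class columns, not z-scores, define the calls.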 Unmarked entries are inactive. Reagent sequences are not shown.

Screen: 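Genes whose loss kills vorinostat-resistant colon cancer cells under vorinostat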 (primary screen)
System: human HCT116-VR colon cancer cells, selected for vorinostat resistance
Knock-down reagent: siRNA pool against human genes, 40 nM siRNA pool
Duration: vorinostat for 24 h, read-out about 72 h after transfection
Treatment: vorinostat at 2.5 µM final
Measurement: 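Two measures, CellTiter-Fluor viability and luminescent caspase 3/7 activity, each as fold change against same-plate mock wells, mean of duplicates, then screen-wide robust z-score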
Reading the numbers: viability robust z-score: higher = more viable cells than screen typical; caspase robust z-score: higher = more caspase 3/7 activity than screen typical
Rule for the call: 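Hits are knock-downs in viability class RV1/RV2 or caspase class CA1/CA2, excluding ones that killed cells in the no-drug cell-count arm; hits then retested with single siRNAs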

viability hit class	caspase hit class	viability robust z-score	caspase robust z-score	target gene
no change	no change	0.3	-0.73	RALBP1
no change	no change	-0.24	0.76	RSPH4A
no change	no change	0.27	3.83	MGAT1
no change	no change	0.78	3.92	KCNG1
no change	no change	2.25	0.04	VARS2
no change	no change	-0.46	0.4	RAB40A
no change	no change	0.72	-0.68	MRGPRX1
RV2 (reduced viability) (active)	no change	-4.96	-0.79	RPS10
no change	no change	-2.42	1.22	HK2
no change	no change	-0.72	0.12	IPO7
no change	no change	0.64	0.06	CMTM3
no change	no change	-1.04	2.66	SLC25A53
no change	no change	-0.35	0.18	ZNFX1
no change	no change	-0.48	2.7	MASTL
no change	no change	-0.59	4.33	KIF1C
no change	no change	-0.75	-0.74	SMS
no change	no change	0.08	1.72	LHCGR
no change	no change	0.66	-0.3	MCTP1
no change	no change	-0.57	-0.72	SMIM11
no change	no change	-0.26	-0.38	OR4F4
no change	no change	-2.29	0.16	HOXD9
no change	no change	-0.28	0.84	MORC4
no change	no change	0.82	-0.4	ADPRH
no change	no change	-0.97	3.59	P3H3
no change	no change	-0.23	0.34	TAS2R8
no change	no change	0.57	-0.59	PDE1A
no change	no change	-1.64	-0.31	SEPTIN10
no change	no change	-0.2	2.46	VGLL1
no change	no change	0.14	-0.57	FAM47A
no change	no change	-0.3	3.12	DNAJC25
no change	no change	-0.84	0.35	CSN3
no change	no change	0.28	-1.02	RASA1
no change	no change	0.98	0.34	PCSK4
no change	no change	0.54	-0.41	SEPTIN9
no change	no change	-0.26	0.22	TGIF2

4 consecutive reagents already listed, quoted:
viability hit class	caspase hit class	viability robust z-score	caspase robust z-score	target gene
no change	no change	-0.3	3.12	DNAJC25
no change	no change	-0.84	0.35	CSN3
no change	no change	0.28	-1.02	RASA1
no change	no change	0.98	0.34	PCSK4

Continued:
viability hit class	caspase hit class	viability robust z-score	caspase robust z-score	target gene
no change	no change	-0.09	-0.25	ARHGAP1
no change	no change	-0.62	-0.92	ARX
no change	no change	0.54	-0.68	GORASP2
no change	no change	0.24	2.39	PRKRA
no change	no change	-0.45	-0.82	HERC6
no change	no change	0.29	-0.5	BTNL2
no change	no change	0.76	-0.53	CFAP53
no change	no change	-0.37	-0.58	CLPX
no change	no change	0.38	1.86	COBL
no change	no change	1.69	-0.21	DCAF4L2
no change	no change	-0.08	1.11	ATP5PF
no change	no change	-0.56	-0.35	CEACAM21
no change	no change	-0.1	1.02	PRDM12
no change	no change	-0.04	-0.92	PHF23
no change	no change	0.36	1.43	CXCR5
no change	no change	-0.44	-0.53	TLR8
no change	no change	0.27	-0.61	SORBS2
no change	no change	0.74	-0.94	ERI1
no change	no change	-1.23	-0.22	RAB11FIP2
no change (active)	CA1 (caspase activation)	1.61	5.16	ANO9
no change	no change	0.24	0.6	C1QL4
no change	no change	0.95	0.59	LIN28B
